PubChem BioAssay AID1259254, NCATS – 2017
The deposit covers about 59,000 reagents; below is a random part of them. About 1,550 of all reagents (2.6%) were called active. 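G2 share is only a proxy for re-replication; each gene was hit by three separate siRNAs, and active genes were retested.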 A number with no mark means an inactive call. Reagents against one gene are numbered here. Further read-outs or replicates are left out here. Not stated in the record: the amount of reagent.

Assay: 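Genome-wide screen for genes that prevent DNA re-replication in cancer cells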 (primary screen)
System: human HCT116 colorectal cancer cells
Knock-down reagent: single siRNA against human genes
Timing: 3 days
Read-out: 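Imaged Hoechst DNA stain sorts each cell into a cycle phase by DNA amount; per plate, G2 fraction set to 0% for non-targeting and 100% for GMNN siRNA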
Scale: G2 robust z-score: higher = more G2 cells, more excess DNA replication
Hit rule: 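An siRNA counts as active if its G2 robust z-score lies at least 5 MADs above the screen median; here such calls match roughly 38% of GMNN control or more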

ARL6 (ARF like GTPase 6) #1
- G2 robust z-score: 0.435

ARL6 (ARF like GTPase 6) #2
- G2 robust z-score: 1.8

ARL6 (ARF like GTPase 6) #3
- G2 robust z-score: -0.037

MRPL32 (mitochondrial ribosomal protein L32) #1
- G2 robust z-score: -0.587

MRPL32 (mitochondrial ribosomal protein L32) #2
- G2 robust z-score: -0.13

MRPL32 (mitochondrial ribosomal protein L32) #3
- G2 robust z-score: -1.26

NTN5 (netrin 5) #1
- G2 robust z-score: -0.654

NTN5 (netrin 5) #2
- G2 robust z-score: -0.543

NTN5 (netrin 5) #3
- G2 robust z-score: 1.06

3 neighbouring entries already listed:
MRPL32 (mitochondrial ribosomal protein L32) #1
- G2 robust z-score: -0.587

MRPL32 (mitochondrial ribosomal protein L32) #2
- G2 robust z-score: -0.13

MRPL32 (mitochondrial ribosomal protein L32) #3
- G2 robust z-score: -1.26

The listing continues:
FGFR1OP2 (FGFR1 oncogene partner 2) #1
- G2 robust z-score: 2.62

FGFR1OP2 (FGFR1 oncogene partner 2) #2
- G2 robust z-score: -0.158

FGFR1OP2 (FGFR1 oncogene partner 2) #3
- G2 robust z-score: 0.422

HSPA1L (heat shock protein family A (Hsp70) member 1 like) #1
- G2 robust z-score: 1.5

HSPA1L (heat shock protein family A (Hsp70) member 1 like) #2
- G2 robust z-score: 1.48

HSPA1L (heat shock protein family A (Hsp70) member 1 like) #3
- G2 robust z-score: -0.0137

LARP6 (La ribonucleoprotein 6, translational regulator) #1
- G2 robust z-score: -0.885

LARP6 (La ribonucleoprotein 6, translational regulator) #2
- G2 robust z-score: -1.31

LARP6 (La ribonucleoprotein 6, translational regulator) #3
- G2 robust z-score: 1.65

IBTK (inhibitor of Bruton tyrosine kinase) #1
- G2 robust z-score: -0.237

IBTK (inhibitor of Bruton tyrosine kinase) #2
- G2 robust z-score: 0.804

IBTK (inhibitor of Bruton tyrosine kinase) #3
- G2 robust z-score: -0.694

RDH11 (retinol dehydrogenase 11) #1
- G2 robust z-score: 2.16

RDH11 (retinol dehydrogenase 11) #2
- G2 robust z-score: -0.56

RDH11 (retinol dehydrogenase 11) #3
- G2 robust z-score: -0.644
